Measurements taken from PMC12828040.
These are yes or no findings as the source states them, for the method shown. Binding seen in cells or lysates may run through a third protein. Some binding calls cover weakened binding; strength is not graded here.

Chains of the proteins cited; added tags and fusions are not shown.
UniProt Q13547: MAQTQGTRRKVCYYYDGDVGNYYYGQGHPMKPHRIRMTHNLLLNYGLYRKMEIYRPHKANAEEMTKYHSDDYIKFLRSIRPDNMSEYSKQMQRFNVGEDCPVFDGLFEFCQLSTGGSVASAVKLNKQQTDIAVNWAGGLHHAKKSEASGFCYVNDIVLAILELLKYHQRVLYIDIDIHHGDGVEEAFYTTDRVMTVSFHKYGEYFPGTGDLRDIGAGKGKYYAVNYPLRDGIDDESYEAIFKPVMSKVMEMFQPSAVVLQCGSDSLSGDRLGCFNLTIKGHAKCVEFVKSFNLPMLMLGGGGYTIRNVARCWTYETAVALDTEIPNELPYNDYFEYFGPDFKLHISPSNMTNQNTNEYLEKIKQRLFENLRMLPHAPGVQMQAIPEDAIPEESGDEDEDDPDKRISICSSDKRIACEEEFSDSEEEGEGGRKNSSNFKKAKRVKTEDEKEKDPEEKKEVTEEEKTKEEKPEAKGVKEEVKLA

Molecular target: T1, ATF3 (human (endogenous in HEC-1A / HEC-1B)) (UniProt P18847)
T1 sequence: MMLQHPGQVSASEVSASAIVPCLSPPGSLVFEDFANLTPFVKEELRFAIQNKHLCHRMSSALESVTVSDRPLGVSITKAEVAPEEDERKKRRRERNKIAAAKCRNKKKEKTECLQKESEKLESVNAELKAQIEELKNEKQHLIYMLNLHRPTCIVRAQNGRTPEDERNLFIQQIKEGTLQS
Assay: co-IP; precipitation with anti-ATF3 antibody, immunoblotting with HDAC1 antibodies; EC cells

binding: binds
Substance: HDAC1 (from UniProt Q13547 1-482)
